Experimental data published in US20240044903A1 (KOZA NOVEL MATERIALS KOREA, published 2024).
No constants are given. Whether binding was seen depends on the method and setting. Some entries that bind do so weakly or less than the wild type.

Target: T1, canine serum TK1 (dog)
T1 sequence: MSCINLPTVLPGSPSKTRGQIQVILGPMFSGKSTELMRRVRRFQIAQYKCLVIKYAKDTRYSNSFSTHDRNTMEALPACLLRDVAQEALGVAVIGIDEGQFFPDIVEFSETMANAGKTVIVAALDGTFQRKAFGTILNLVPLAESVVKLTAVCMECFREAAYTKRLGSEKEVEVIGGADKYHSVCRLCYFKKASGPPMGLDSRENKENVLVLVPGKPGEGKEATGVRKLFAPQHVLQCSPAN
Assay: immunoprecipitation with anti-mouse IgG DYNABEADS from dog sera

binding: binds
B1: CTK1-1 (mAb1) (antibody, mouse IgG1, kappa, V domains shown)
VH: EVKLVESGGGLVQPGDSLRLSCATSGFTFNDHYMNWVRQPPGKALEWVAFIGNKAYGYKIEYNSSVKGRFTISRDDSQSFLYLQLNTLRSEDSATYYCARDGAFIYWGQGTVVTVSA
VL: DVVMTQTPLSLPVSLGDQASISCRSSQSLVHSNGNTYLHWYLQKPGQSPKLLIYKVSNRFSGVPDRFSGSGSGSDFTLKISRVEAEDLGVYFCSQSTHIPYTFGGGTELEIRR
notes: Mouse monoclonal IgG1-kappa from hybridoma sub-clone 9C8, raised against the active site peptide (amino acids 161-183) of human TK1; also called 9C8
